From patent US20260070940A1

B1: SEQ ID NO 260 (VHH)
VHH: EVQLVESGGGLVQPGGSLRLSCAASGFNIKDTCIGWVRRAPGKEEELVANICITDGKTRYADSVKGRFTISADTSKNTAYLQMNSLRAEDTAVYYCAYYSKYIGYRYWGQGTTVTVSS
B2: SEQ ID NO 261 (VHH)
VHH: EVQLVESGGGLVQPGGSLRLSCAASGFNIKDTCIGWVRRAPGKEEELVANICQSGGYTRYADSVKGRFTISADTSKNTAYLQMNSLRAEDTAVYYCARYHKGVGYQYWGQGTTVTVSS
B3: SEQ ID NO 262 (VHH)
VHH: EVQLVESGGGLVQPGGSLRLSCAASSFNIKDTYIGWVRRAPGKEEELVAKIFRCSDGRTRYADSVKGRFTISCDTSKNTAYLQMNSLRAEDTAVYYCANIYKTHYTYWGQGTTVTVSS
B4: SEQ ID NO 263 (VHH)
VHH: EVQLVESGGGLVQPGGSLRLSCAASGFNIKDTCIGWVRRAPGKEEELVANICGHIGSTRYADSVKGRFTISADTSKNTAYLQMNSLRAEDTAVYYCANSYTYSYKYWGQGTTVTVSS
B5: SEQ ID NO 265 (VHH)
VHH: EVQLVESGGGLVQPGGSLRLSCAASGFNIKDTCIGWVRRAPGKEEELVANICGTTGSTRYADSVKGRFTISADTSKNTAYLQMNSLRAEDTAVYYCANSWTIYRYKYWGQGTTVTVSS
B6: SEQ ID NO 271 (VHH)
VHH: EVQLVESGGGLVQPGGSLRLSCAASGFNIKDSSTYIGWVRRAPGKEEELVARIQCSSGSTRYADSVKGRFTISCDTSKNTAYLQMNSLRAEDTAVYYCAGRQSYNYGYIYWGQGTTVTVSS
B7: SEQ ID NO 279 (VHH)
VHH: EVQLVESGGGLVQPGGSLRLSCAASGFNIKDSSTYIGWVRRAPGKEEELVARIQCSAGSTRYADSVKGRFTISCDTSKNTAYLQMNSLRAEDTAVYYCAGRSARSYSYIYWGQGTTVTVSS

biological target: Biotinylated FAP-avi-His on Sol-R2 streptavidin beads (species not told); assay: mix-and-read bead assay (Mirrorball), FAP-avi-His on streptavidin beads, bacterial supernatant, FITC anti-FLAG

binding, binds:
B1, B2, B3, B4, B5, B6, B7

These are yes or no findings as the source states them, for the method shown. A result given as binding can be weak or reduced; the word gives no strength.
